This is one part of the list. The main result of the screen is listed elsewhere. These columns were measured beside it and carry no call. Most of these compounds were active or inconclusive in the main read-out, so they are no random draw. Potencies come from curve fits of mixed quality, noted in brackets.

A short description of this assay: qHTS Assay for Lipid Storage Modulators in Drosophila S3 Cells.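 On cell number change: cells counted by Cell Tracker Red CMTPX staining in the red channel.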 The note with it: BODIPY lipid droplet fluorescence, 18-24 h; for cell number change: measured here: cell count max response, cells fed with added oleic acid. In a few lines: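 Drosophila S3 cells loaded with oleic acid (400 uM, as added) and compounds at several concentrations; lipid droplets imaged by 488-nm laser-scanning cytometry, 500–530 nm intensity and object ratio to cell channel. Percent activity normalized to 20 uM Triacsin C.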
Background: qHTS replaces the single test concentration by a dilution series.

Where [1] appears, read: measured here: lipid fluorescence (Fed channel) AC50, cells fed with added oleic acid.
[2] abbreviates: measured here: cell number channel AC50, cells fed with added oleic acid.

Regarding `C=CCC(=O)N(CC)CC1CCCN(CCc2cccc(F)c2)C1` (centres undefined), the cell number change was determined as 15.7%. Further, under setting [1], the AC50 (in general, the concentration giving half of the maximal activity seen) was 6.51 µM [rising, single point].

In the case of `CC(=O)OCCCCON1C(=O)c2ccccc2C1=O`, the cell number change is -14.2%. Also, the AC50 under setting [1] is 3.66 µM [falling, full curve, poor fit].

For the compound `CC1(C)Oc2ccc3ccc(=O)oc3c2/C(=C/Nc2ccc(O)cc2)C1=O`, the cell number change is -45.6%. In addition, the AC50 under setting [2] is 14.6 µM [falling, partial curve, poor fit]. The AC50 under setting [1] is 29.1 µM [falling, partial curve, poor fit].

As for `CCOc1ncc(S(=O)(=O)N2CCN(CC)CC2)cc1C(=O)O`, the cell number change came out at 1.75%.

Turning to `O=C(O)c1cc(Cl)c(Cl)cc1C(=O)N1CCOCC1`, the cell number change is -0.214%. Also, the AC50 under setting [1] is 4.61 µM [falling, partial curve].

For the compound `COc1ccccc1-c1nnc(SC/C(O)=C(\C#N)c2nc3ccccc3[nH]2)n1C1CCCCC1`, the cell number change is 5.33%. Moreover, the AC50 under setting [1] was 4.11 µM [rising, single point].

With `COc1cc2c(cc1OC)-c1nnnn1C(C)(C)C2`, the AC50 under setting [2] was 0.411 µM [rising, partial curve, poor fit].

For the compound `COc1ccc(-c2csc(C3=C(O)CN(C(C)C)C3=N)n2)cc1OC`, the cell number change is -11.3%.

As for `C/C(=C\C(=S)Nc1ccccc1)Nc1cccc2ccccc12`, the cell number change was -8.45%. Besides, the AC50 under setting [1] was 29.1 µM [falling, single point].

Turning to `CC(=O)c1cc2c(cc1NC(=O)c1ccccc1C)OCO2`, the cell number change was 46.3%. In addition, the AC50 under setting [2] was 13 µM [rising, partial curve]. Moreover, the AC50 under setting [1] was 14.6 µM [rising, partial curve, poor fit].

As for `COc1ccc(CC(=O)N/N=C/c2ccc(-c3ccc(F)cc3)o2)cc1OC`, the cell number change is -69.5%. Further, the AC50 under setting [1] is 1.46 µM [falling, partial curve].

With `Cc1cc(C)cc(N(CC(=O)Nc2ccc(C(F)(F)F)cc2)S(=O)(=O)c2c(C)[nH]c(=O)[nH]c2=O)c1`, the cell number change was -56.8%. Besides, the AC50 under setting [2] was 29.1 µM [falling, single point]. Also, the AC50 under setting [1] was 29.1 µM [rising, single point].

On to `Cc1cc(N2CCC(C)CC2)nc2cccc(O)c12`, for which the cell number change was determined as 42%. Further, the AC50 under setting [2] is 29.1 µM [rising, single point]. For the same compound, the AC50 under setting [1] was 0.164 µM [falling, full curve, poor fit].

With `COc1ccc(CCNc2nc(=O)[nH]nc2C)cc1OC`, the cell number change is -0.13%.

Regarding `Cc1cc(C)cc(NC(=S)NCCCN2CCOCC2)c1`, the cell number change was found to be 11.3%.

Take `Cc1ccccc1NS(=O)(=O)c1cc(C(=O)Nc2cccc([N+](=O)[O-])c2)ccc1C`: the cell number change worked out at 0.635%. Besides, the AC50 under setting [1] is 1.3 µM [rising, partial curve].

Regarding `COC(=O)CN1C(=O)C(O)(CC(=O)c2ccc(Br)cc2)c2ccccc21` (centres undefined), the cell number change is -52.4%. In addition, under setting [2], the AC50 is 0.58 µM [falling, full curve]. For the same compound, the AC50 under setting [1] is 2.91 µM [falling, full curve].

These data come from PubChem BioAssay AID2685 (National Center for Advancing Translational Sciences (NCATS), 2010).
